Publication PMC7060358
Results are given in words; binding and its absence hold for the method and conditions named. Binding seen in cells or lysates may run through a third protein. For some assays here: Binding calls can cover weak binding; strength is not graded here.

Amino acid sequences for entries named in this document (tags omitted). A change or cut given only in a name is not applied to a line headed by its entry.
UniProt P11881: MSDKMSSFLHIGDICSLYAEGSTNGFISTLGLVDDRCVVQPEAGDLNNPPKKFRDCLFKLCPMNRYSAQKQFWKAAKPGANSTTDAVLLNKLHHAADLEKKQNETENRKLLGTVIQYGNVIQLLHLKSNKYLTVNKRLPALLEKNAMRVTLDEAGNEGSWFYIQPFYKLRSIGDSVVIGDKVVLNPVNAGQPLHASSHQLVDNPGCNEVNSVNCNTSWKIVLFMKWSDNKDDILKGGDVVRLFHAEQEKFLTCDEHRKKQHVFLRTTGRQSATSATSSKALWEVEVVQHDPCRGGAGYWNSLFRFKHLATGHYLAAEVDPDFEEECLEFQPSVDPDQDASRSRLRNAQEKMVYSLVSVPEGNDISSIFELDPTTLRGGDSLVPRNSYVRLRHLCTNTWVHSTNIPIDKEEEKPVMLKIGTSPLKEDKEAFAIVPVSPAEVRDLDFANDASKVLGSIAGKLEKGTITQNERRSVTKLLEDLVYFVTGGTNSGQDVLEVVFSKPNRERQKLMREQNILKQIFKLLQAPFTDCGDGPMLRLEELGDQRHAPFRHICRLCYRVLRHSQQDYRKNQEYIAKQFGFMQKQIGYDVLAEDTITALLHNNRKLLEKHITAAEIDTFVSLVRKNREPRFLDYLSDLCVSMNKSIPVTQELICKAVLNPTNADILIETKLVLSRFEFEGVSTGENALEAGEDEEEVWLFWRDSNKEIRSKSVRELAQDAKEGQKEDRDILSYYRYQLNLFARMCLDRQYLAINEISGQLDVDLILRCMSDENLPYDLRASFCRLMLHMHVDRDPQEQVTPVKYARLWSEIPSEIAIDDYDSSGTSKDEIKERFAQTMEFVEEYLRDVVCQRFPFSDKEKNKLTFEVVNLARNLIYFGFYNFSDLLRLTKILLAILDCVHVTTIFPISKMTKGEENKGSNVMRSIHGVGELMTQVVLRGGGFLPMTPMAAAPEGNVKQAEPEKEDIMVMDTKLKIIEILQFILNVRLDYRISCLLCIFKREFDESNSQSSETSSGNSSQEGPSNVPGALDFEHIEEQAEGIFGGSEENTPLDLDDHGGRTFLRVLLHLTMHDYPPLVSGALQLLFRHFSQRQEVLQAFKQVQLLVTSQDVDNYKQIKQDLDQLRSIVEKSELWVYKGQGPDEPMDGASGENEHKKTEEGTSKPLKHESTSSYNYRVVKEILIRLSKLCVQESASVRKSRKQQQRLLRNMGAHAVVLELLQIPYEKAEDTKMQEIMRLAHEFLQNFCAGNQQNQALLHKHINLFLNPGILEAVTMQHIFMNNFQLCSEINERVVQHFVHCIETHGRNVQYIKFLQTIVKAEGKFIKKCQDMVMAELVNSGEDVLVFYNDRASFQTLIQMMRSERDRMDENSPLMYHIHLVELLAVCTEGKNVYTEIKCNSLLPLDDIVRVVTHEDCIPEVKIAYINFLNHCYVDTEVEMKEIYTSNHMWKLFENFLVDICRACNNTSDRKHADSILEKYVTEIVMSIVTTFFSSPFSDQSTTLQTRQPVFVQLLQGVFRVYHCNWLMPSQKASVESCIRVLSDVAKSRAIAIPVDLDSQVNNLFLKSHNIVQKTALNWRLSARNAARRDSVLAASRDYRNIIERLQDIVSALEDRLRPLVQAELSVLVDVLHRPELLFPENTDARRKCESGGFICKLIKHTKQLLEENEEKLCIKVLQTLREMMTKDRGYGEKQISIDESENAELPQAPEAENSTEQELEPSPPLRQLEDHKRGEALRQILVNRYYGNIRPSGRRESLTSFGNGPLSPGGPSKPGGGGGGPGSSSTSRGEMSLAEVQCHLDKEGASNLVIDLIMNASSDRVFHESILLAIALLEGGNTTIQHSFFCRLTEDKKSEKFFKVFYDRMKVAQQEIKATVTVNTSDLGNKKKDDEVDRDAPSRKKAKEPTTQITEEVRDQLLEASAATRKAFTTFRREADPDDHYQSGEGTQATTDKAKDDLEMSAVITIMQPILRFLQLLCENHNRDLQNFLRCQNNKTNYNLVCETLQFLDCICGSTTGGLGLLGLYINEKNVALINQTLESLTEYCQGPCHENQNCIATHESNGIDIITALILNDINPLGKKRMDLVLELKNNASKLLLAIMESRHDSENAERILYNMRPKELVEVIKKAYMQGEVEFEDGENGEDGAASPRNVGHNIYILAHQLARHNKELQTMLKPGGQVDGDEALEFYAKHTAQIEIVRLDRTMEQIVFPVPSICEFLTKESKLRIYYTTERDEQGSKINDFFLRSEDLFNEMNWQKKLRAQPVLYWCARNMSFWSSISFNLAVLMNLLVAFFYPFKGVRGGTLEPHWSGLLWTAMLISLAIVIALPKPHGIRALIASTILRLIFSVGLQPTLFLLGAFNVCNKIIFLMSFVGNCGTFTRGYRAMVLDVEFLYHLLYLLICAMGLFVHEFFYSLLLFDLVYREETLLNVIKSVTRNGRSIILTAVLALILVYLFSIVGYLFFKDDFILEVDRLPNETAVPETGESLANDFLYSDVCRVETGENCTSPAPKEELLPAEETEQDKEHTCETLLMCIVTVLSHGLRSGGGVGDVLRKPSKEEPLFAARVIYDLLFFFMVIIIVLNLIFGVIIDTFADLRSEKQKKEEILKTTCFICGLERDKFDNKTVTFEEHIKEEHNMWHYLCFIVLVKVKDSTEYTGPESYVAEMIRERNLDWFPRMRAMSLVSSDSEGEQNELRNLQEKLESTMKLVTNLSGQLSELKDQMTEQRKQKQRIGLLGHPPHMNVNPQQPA
UniProt Q60932: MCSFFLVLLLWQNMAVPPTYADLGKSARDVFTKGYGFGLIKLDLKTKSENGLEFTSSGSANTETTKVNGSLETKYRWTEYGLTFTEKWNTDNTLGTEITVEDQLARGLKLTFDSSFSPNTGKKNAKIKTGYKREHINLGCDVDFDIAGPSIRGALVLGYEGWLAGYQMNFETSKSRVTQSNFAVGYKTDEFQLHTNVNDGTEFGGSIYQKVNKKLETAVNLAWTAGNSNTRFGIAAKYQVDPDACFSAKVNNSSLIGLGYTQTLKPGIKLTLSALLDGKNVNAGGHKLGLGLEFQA

Columns and labels:
[1] = molecular target: IP3 receptor‐1 (mouse (endogenous in lung tissue)) (UniProt P11881); assay: condition: only A. fumigatus-challenged mice treated with IC87114 or 4-PBA; proximity ligation; lung sections of A. fumigatus-challenged mice treated with 1 mg/kg IC87114 or 80 mg/kg 4-PBA; positive PLA dots per field counted
[2] = molecular target: IP3 receptor‐1 (mouse (endogenous in lung tissue)) (UniProt P11881); assay: proximity ligation; lung sections of A. fumigatus-challenged mice; bright field and fluorescence images, positive PLA dots per field counted

voltage‐dependent anion‐selective channel 1 (from UniProt Q60932)
binding [1]: no binding | binding [2]: binds
